The supplement of paper PMC10849652
Some of the results follow.

Sequences of proteins named here, by UniProt entry; tags and fusion partners are left off. A change or cut given only in a name is not applied to a line headed by its entry.
UniProt Q15155: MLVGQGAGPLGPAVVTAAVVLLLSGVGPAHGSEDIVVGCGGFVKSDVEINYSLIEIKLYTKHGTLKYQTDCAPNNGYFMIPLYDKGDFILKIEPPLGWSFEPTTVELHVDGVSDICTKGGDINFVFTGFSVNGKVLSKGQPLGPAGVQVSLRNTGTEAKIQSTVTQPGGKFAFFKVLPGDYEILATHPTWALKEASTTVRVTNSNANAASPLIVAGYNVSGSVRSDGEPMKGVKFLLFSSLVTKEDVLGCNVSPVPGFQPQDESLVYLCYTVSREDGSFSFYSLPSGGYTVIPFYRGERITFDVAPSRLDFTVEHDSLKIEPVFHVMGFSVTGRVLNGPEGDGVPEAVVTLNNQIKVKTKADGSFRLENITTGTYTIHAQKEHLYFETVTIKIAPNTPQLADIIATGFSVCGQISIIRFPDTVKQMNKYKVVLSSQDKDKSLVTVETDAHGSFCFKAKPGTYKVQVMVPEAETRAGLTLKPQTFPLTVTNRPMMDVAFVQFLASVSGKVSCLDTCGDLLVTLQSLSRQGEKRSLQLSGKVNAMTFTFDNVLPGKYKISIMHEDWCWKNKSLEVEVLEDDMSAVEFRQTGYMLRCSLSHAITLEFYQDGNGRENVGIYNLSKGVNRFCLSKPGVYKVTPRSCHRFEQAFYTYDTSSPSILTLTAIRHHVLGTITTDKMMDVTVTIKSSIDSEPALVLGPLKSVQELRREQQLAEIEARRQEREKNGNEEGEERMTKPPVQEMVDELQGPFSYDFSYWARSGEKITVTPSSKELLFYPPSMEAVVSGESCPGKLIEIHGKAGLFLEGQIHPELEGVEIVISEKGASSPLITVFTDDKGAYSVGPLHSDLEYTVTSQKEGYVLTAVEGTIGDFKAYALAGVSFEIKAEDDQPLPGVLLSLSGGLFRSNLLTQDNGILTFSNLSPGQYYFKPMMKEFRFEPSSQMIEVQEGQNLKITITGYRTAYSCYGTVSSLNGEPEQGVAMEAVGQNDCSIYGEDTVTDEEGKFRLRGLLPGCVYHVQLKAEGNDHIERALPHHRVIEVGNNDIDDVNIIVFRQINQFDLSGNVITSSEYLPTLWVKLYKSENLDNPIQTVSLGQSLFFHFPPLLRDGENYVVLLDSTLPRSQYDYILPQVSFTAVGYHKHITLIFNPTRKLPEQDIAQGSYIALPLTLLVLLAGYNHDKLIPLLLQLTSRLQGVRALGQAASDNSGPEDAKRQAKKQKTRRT
UniProt O94916: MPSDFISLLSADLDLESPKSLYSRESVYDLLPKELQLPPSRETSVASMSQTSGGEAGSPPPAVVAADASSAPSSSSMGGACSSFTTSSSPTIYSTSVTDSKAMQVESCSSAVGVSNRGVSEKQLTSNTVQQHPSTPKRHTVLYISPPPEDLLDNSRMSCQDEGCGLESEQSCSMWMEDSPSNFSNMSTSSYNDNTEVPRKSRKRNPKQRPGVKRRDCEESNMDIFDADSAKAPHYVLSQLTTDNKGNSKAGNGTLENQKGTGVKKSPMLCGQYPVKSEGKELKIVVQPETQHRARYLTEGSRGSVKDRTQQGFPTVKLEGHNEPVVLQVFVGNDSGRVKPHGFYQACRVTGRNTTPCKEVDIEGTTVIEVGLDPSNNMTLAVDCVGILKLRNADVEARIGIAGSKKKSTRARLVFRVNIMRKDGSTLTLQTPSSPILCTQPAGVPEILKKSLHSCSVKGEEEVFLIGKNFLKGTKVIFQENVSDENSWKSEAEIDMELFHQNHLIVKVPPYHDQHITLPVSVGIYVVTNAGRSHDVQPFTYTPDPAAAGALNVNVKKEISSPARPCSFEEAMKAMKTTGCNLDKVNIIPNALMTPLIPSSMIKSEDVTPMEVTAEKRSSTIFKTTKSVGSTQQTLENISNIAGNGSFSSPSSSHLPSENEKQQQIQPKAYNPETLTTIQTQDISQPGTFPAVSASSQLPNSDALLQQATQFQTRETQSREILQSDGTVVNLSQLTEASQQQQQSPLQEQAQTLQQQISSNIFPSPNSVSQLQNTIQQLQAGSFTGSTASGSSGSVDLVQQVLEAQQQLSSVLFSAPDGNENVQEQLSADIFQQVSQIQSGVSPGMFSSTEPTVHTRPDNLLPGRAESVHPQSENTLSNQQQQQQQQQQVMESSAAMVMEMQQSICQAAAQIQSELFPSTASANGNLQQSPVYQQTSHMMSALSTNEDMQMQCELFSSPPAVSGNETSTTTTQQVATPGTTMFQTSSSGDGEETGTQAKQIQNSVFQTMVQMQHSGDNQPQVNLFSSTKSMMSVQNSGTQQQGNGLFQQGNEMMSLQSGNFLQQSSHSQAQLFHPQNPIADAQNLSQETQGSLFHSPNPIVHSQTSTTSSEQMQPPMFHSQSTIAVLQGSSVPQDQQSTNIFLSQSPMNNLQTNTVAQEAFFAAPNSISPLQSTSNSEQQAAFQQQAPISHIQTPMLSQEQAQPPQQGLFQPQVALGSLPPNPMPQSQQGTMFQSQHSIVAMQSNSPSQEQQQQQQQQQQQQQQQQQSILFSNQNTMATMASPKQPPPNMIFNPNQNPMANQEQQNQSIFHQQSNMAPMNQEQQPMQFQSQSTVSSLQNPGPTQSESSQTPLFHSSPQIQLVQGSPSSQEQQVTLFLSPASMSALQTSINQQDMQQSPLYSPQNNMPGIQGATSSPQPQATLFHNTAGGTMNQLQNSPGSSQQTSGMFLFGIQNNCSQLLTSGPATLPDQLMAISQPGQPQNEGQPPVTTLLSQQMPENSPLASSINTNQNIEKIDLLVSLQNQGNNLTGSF
UniProt Q8TDX7: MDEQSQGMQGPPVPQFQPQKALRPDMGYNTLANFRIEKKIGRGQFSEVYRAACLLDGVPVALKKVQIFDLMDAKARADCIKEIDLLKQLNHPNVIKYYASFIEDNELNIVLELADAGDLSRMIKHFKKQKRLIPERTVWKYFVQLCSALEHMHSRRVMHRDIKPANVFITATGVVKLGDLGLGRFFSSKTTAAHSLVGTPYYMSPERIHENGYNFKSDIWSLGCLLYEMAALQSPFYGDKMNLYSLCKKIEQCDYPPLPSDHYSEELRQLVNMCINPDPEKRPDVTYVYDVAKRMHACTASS
UniProt Q9NX24: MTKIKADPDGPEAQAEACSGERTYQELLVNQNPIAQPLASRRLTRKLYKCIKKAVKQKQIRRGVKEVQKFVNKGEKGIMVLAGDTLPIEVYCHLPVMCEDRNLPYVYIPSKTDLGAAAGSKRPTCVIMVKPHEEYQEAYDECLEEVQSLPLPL
UniProt Q9Y639: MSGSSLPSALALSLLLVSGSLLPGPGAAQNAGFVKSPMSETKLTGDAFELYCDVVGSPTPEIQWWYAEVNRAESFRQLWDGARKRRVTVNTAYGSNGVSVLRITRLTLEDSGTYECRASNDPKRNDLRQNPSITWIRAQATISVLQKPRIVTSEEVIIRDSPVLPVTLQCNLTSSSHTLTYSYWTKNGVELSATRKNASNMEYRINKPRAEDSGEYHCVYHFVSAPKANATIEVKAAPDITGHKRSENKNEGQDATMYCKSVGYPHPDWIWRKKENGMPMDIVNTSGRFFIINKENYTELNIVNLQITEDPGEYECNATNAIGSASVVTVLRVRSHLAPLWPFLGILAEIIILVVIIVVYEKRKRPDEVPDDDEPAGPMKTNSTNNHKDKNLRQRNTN
UniProt P78316: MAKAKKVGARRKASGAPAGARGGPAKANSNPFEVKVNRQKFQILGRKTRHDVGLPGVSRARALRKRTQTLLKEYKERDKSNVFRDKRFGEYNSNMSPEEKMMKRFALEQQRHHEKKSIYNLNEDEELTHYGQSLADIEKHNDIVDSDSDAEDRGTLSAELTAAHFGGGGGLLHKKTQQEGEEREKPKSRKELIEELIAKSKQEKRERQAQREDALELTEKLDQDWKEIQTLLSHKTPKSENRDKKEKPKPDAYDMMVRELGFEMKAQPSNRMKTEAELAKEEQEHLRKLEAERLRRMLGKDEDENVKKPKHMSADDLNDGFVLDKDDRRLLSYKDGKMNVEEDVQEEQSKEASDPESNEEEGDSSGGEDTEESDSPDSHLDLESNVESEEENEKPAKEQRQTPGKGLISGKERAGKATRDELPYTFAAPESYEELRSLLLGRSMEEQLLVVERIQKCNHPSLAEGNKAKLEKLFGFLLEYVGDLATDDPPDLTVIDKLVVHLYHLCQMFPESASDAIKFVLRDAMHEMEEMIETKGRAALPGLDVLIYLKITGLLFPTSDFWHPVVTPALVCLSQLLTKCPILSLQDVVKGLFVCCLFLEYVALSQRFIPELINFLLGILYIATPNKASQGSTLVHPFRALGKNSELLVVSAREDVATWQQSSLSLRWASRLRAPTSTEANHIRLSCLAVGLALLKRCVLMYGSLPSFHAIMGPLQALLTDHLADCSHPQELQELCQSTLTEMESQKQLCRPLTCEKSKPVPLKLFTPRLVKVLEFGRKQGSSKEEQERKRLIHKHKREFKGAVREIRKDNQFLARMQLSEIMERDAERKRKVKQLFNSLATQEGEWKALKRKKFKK
UniProt Q9H6R4: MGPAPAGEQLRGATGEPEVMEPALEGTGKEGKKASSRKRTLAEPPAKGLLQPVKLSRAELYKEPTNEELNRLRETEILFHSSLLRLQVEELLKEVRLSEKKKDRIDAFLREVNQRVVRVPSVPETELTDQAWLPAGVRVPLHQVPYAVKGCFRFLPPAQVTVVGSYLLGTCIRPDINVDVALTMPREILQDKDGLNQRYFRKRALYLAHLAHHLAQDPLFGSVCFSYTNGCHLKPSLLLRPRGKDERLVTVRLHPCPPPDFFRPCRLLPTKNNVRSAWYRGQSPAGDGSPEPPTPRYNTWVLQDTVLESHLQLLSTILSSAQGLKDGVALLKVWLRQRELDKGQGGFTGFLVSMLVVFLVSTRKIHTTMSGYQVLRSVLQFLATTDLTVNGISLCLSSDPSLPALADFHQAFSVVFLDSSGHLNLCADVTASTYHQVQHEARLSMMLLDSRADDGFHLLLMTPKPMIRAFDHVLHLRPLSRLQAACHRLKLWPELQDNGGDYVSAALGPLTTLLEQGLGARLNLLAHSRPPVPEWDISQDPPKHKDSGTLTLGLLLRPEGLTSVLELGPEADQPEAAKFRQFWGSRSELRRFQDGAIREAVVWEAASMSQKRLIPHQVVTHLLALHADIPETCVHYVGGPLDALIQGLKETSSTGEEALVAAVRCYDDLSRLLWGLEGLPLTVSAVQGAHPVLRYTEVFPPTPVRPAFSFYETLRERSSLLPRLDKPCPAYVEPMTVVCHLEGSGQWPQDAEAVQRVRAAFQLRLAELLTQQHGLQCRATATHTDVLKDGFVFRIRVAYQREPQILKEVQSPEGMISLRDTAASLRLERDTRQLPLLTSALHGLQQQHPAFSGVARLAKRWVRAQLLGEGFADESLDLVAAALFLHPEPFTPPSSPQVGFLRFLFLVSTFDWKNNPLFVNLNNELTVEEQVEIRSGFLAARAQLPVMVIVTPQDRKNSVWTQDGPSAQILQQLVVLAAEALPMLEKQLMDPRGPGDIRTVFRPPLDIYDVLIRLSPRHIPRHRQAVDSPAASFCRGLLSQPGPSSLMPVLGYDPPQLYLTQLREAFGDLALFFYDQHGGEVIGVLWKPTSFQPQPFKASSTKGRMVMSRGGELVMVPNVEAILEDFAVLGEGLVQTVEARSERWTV
UniProt P24468: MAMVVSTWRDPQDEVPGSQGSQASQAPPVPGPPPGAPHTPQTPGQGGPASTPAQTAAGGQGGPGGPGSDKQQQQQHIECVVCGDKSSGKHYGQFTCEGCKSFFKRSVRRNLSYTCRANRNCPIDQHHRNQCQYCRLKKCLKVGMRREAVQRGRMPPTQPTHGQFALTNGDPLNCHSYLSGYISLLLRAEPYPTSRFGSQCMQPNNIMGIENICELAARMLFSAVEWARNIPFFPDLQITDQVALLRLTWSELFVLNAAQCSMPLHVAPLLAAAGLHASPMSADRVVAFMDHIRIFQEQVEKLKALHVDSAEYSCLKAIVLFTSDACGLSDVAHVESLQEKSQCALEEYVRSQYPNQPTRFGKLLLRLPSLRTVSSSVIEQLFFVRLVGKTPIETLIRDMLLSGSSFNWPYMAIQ
UniProt Q8N8Q9: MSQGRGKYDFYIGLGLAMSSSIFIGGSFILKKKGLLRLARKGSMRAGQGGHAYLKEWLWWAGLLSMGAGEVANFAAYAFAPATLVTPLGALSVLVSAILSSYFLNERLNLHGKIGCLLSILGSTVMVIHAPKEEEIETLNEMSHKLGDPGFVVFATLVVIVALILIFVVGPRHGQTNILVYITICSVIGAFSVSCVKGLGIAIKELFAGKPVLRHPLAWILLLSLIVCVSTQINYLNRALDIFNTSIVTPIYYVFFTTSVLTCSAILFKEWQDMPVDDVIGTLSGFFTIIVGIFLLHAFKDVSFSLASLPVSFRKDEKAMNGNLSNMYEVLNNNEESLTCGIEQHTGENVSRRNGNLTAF

Legend:
Test in all cases: log2 fold change, soluble protein after heating vs DMSO (PISA); higher = thermal stabilisation; K562 cells, 10 uM, 30 min; active = over 0.2 and 3.5 SD of the protein, either way, in both replicates (recomputed)
saracatinib = compound: CN1CCN(CCOc2cc(OC3CCOCC3)c3c(Nc4c(Cl)ccc5c4OCO5)ncnc3c2)CC1 [saracatinib]
In short: (§1)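 K562 cells at 2×10^6 cells/mL were given 10 μM compound for 30 min. Aliquots then went through 3 min of heating across 48°C-58°C, were pooled, and were extracted in PBS with 0.5% NP-40 at 4°C, and the supernatant after 21,000xg for 90 min was quantified by TMTpro 16plex LC-MS/MS with channel sums equalised. Thermal stability relative to control samples, from duplicates, is given as log2 fold change.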

sotrastaurin = compound: CN1CCN(c2nc(C3=C(c4c[nH]c5ccccc45)C(=O)NC3=O)c3ccccc3n2)CC1 [sotrastaurin]
In short: as §1

alvocidib = compound: CN1CC[C@H](c2c(O)cc(O)c3c(=O)cc(-c4ccccc4Cl)oc23)[C@H](O)C1 [alvocidib]
In short: as §1

Tubastatin A = compound: CN1CCc2c(c3ccccc3n2Cc2ccc(C(=O)NO)cc2)C1 [Tubastatin A]
In short: as §1

[1] = compound: CNC(=O)C1=CC=CC=C1NC2=NC(=NC=C2Cl)NC3=C(C=C(C=C3)N4CCOCC4)OC
In short: as §1

defactinib = compound: CNC(=O)c1ccc(Nc2ncc(C(F)(F)F)c(NCc3nccnc3N(C)S(C)(=O)=O)n2)cc1 [defactinib]
In short: as §1

rucaparib = compound: CNCc1ccc(-c2[nH]c3cc(F)cc4c3c2CCNC4=O)cc1 [rucaparib]
In short: as §1

[2] = compound: CNc1nc(-c2ccc3c(N)n[nH]c3c2)cc(N2C[C@@H](C(=O)NC3CCCCC3)CC[C@H]2C)n1
In short: as §1

encorafenib = compound: COC(=O)N[C@@H](C)CNc1nccc(-c2cn(C(C)C)nc2-c2cc(Cl)cc(NS(C)(=O)=O)c2F)n1 [encorafenib]
In short: as §1

[3] = compound: COC(=O)[C@H](CCSC)NC(=O)C1=C(C=C(C=C1)NC[C@H](CS)N)C2=CC=CC=C2
In short: as §1

Measured: log2 fold change

NOMO1 (UniProt Q15155)
inactive: saracatinib -0.067 | sotrastaurin 0.009 | alvocidib 0.086 | Tubastatin A 0.016 | [1] -0.168 | defactinib -0.124 | rucaparib 0.035 | [2] -0.084 | encorafenib -0.083 | [3] 0.019

NOA1 (UniProt Q8NC60)
inactive: saracatinib -0.139 | sotrastaurin 0.042 | alvocidib 0.055 | Tubastatin A 0.045 | [1] -0.042 | defactinib -0.047 | rucaparib -0.047 | [2] -0.031 | encorafenib 0.028 | [3] -0.043

NFAT5 isoform 5 (UniProt O94916)
inactive: saracatinib -0.072 | sotrastaurin -0.005 | alvocidib -0.004 | Tubastatin A 0.071 | [1] 0.098 | defactinib -0.044 | rucaparib -0.011 | [2] 0.001 | encorafenib 0.05 | [3] 0.03

NEK7 (UniProt Q8TDX7)
inactive: saracatinib 0.016 | sotrastaurin -0.041 | alvocidib -0.07 | Tubastatin A 0.022 | [1] -0.002 | defactinib 0.003 | rucaparib 0.034 | [2] -0.032 | encorafenib 0.043 | [3] 0.014

NPLOC4 isoform 2 (UniProt Q8TAT6)
inactive: saracatinib 0.041 | sotrastaurin 0.024 | alvocidib 0 | Tubastatin A -0.01 | [1] -0.043 | defactinib 0.008 | rucaparib -0.013 | [2] 0.008 | encorafenib -0.004 | [3] 0.046

NIP7 (UniProt Q9Y221)
inactive: saracatinib -0.056 | sotrastaurin 0.069 | alvocidib 0.279 | Tubastatin A -0.061 | [1] -0.05 | defactinib 0.408 | rucaparib 0.534 | [2] -0.014 | encorafenib 0.039 | [3] 0.018

NIPSNAP1 (UniProt Q9BPW8)
inactive: saracatinib -0.055 | sotrastaurin 0 | alvocidib -0.076 | Tubastatin A -0.017 | [1] 0.063 | defactinib -0.054 | rucaparib 0.008 | [2] -0.014 | encorafenib -0.084 | [3] -0.014

NEK9 (UniProt Q8TD19)
inactive: saracatinib -0.013 | sotrastaurin 0.01 | alvocidib -0.024 | Tubastatin A 0.03 | [1] -0.016 | defactinib -0.049 | rucaparib -0.015 | [2] 0.025 | encorafenib 0.008 | [3] 0.023

NHP2 (UniProt Q9NX24)
inactive: saracatinib 0.058 | sotrastaurin 0.01 | alvocidib 0.263 | Tubastatin A -0.024 | [1] 0.006 | defactinib 0.204 | rucaparib 0.16 | [2] 0.009 | encorafenib 0.017 | [3] 0.064

NOC2L (UniProt Q9Y3T9)
inactive: saracatinib -0.089 | sotrastaurin -0.065 | alvocidib -0.122 | Tubastatin A 0.109 | [1] 0.055 | defactinib -0.113 | rucaparib 0.002 | [2] -0.039 | encorafenib 0.086 | [3] 0.022

NOL3 isoform 3 (UniProt O60936)
inactive: saracatinib -0.011 | sotrastaurin 0 | alvocidib 0.198 | Tubastatin A 0.13 | defactinib -0.039 | rucaparib 0.048 | [2] 0.017 | encorafenib -0.05 | [3] -0.059

NFATC4 isoform 2 (UniProt Q14934)
inactive: saracatinib -0.106 | sotrastaurin 0.067 | alvocidib 0.029 | Tubastatin A -0.06 | defactinib -0.104 | rucaparib -0.423 | [2] -0.053 | encorafenib -0.099 | [3] 0.138

NEURL4 (UniProt Q96JN8)
inactive: saracatinib 0.284 | sotrastaurin 0.435 | alvocidib 0.096 | [1] 0.249 | defactinib -0.142 | rucaparib -0.392 | [2] -0.129 | encorafenib -0.035 | [3] 0.139

NPTN (UniProt Q9Y639)
inactive: saracatinib 0.03 | sotrastaurin 0.053 | alvocidib -0.043 | Tubastatin A 0.052 | [1] -0.011 | defactinib -0.058 | rucaparib -0.068 | [2] -0.019 | encorafenib -0.009 | [3] -0.001

NOD1 (UniProt Q9Y239)
inactive: saracatinib -0.134 | sotrastaurin 0.01 | alvocidib 0.239 | rucaparib -0.114 | [2] 0 | encorafenib -0.227

NOP53 (UniProt Q9NZM5)
inactive: saracatinib -0.063 | sotrastaurin -0.014 | Tubastatin A 0.141 | [1] -0.019 | defactinib 0.62 | rucaparib 0.36 | [2] 0.035 | encorafenib 0.174 | [3] -0.022

NFIC (UniProt P08651)
inactive: saracatinib 0.094 | sotrastaurin 0.081 | alvocidib -0.024 | Tubastatin A -0.054 | [1] 0.018 | defactinib 0.014 | rucaparib 0.068 | [2] -0.077 | encorafenib 0.022 | [3] 0.01

NIPSNAP3A (UniProt Q9UFN0)
inactive: saracatinib 0.011 | sotrastaurin 0.023 | alvocidib 0.013 | Tubastatin A -0.01 | [1] -0.001 | defactinib -0.036 | rucaparib 0.004 | [2] -0.087 | encorafenib 0.008 | [3] 0.045

NFE2 (UniProt Q16621)
inactive: saracatinib 0.011 | sotrastaurin -0.096 | Tubastatin A 0.093 | [1] -0.025 | defactinib -0.037 | rucaparib -0.075 | [2] -0.065 | encorafenib 0.018 | [3] -0.06

NLRC3 isoform 2 (UniProt Q7RTR2)
inactive: saracatinib -0.002 | sotrastaurin 0.148 | alvocidib 0.238 | [1] -0.104 | defactinib 0.107 | rucaparib -0.129 | [2] -0.137 | encorafenib 0.066 | [3] 0.167

NENF (UniProt Q9UMX5)
inactive: saracatinib -0.013 | sotrastaurin 0.001 | alvocidib 0.007 | Tubastatin A -0.004 | [1] -0.02 | defactinib 0.042 | rucaparib 0.009 | [2] -0.02 | encorafenib -0.023 | [3] 0.022

NOP14 (UniProt P78316)
inactive: saracatinib -0.101 | sotrastaurin 0 | alvocidib 0.021 | Tubastatin A 0.009 | defactinib 0.016 | [2] 0.046 | [3] 0.067

NEK3 (UniProt P51956)
inactive: saracatinib 0.022 | sotrastaurin -0.125 | Tubastatin A -0.194 | [1] -0.027 | defactinib -0.182 | rucaparib -0.013 | [2] 0.007 | encorafenib 0 | [3] 0.036

NNT (UniProt Q13423)
inactive: saracatinib 0.005 | sotrastaurin 0 | Tubastatin A -0.01 | [1] 0.017 | defactinib -0.009 | rucaparib -0.053 | [2] -0.036 | encorafenib -0.001 | [3] -0.014

NEMF (UniProt O60524)
inactive: saracatinib -0.181 | sotrastaurin -0.032 | alvocidib 0.222 | Tubastatin A 0.164 | [1] -0.019 | defactinib 0.302 | rucaparib 0.316 | [2] 0.151 | encorafenib 0.132 | [3] -0.022

NFU1 (UniProt Q9UMS0)
inactive: saracatinib -0.014 | sotrastaurin -0.058 | alvocidib 0.012 | Tubastatin A -0.013 | [1] 0.031 | defactinib 0.007 | rucaparib -0.048 | [2] -0.044 | encorafenib -0.076 | [3] 0.012

NRAS (UniProt P01111)
inactive: saracatinib 0 | sotrastaurin 0.107 | alvocidib -0.01 | Tubastatin A -0.023 | [1] -0.008 | defactinib -0.002 | rucaparib -0.008 | [2] 0.044 | encorafenib -0.041 | [3] 0.023

NHLRC3 (UniProt Q5JS37)
inactive: saracatinib 0.109 | sotrastaurin 0.045 | alvocidib -0.073 | Tubastatin A -0.124 | [1] -0.037 | rucaparib -0.217 | [2] -0.031 | encorafenib 0.058

NOL6 (UniProt Q9H6R4)
inactive: saracatinib -0.056 | sotrastaurin -0.043 | alvocidib 0.158 | Tubastatin A 0.113 | defactinib 0.168 | [2] 0.116 | [3] -0.048

NLE1 (UniProt Q9NVX2)
inactive: saracatinib 0.051 | sotrastaurin -0.019 | alvocidib -0.03 | Tubastatin A -0.026 | [1] -0.032 | defactinib -0.039 | rucaparib -0.04 | [2] -0.012 | encorafenib -0.002 | [3] -0.021

NR2F2 (UniProt P24468)
inactive: saracatinib 0.093 | sotrastaurin -0.065 | alvocidib -0.03 | Tubastatin A -0.012 | [1] -0.025 | defactinib -0.086 | rucaparib 0.093 | [2] -0.044 | encorafenib 0.041 | [3] 0.014

NIPA2 (UniProt Q8N8Q9)
inactive: saracatinib 0.123 | sotrastaurin 0.067 | alvocidib -0.052 | Tubastatin A 0.007 | [1] -0.046 | defactinib -0.063 | rucaparib -0.065 | [2] 0.053 | encorafenib 0.074 | [3] 0.096

Looked up one by one from above, two records:
NHLRC3 (UniProt Q5JS37)
inactive: saracatinib 0.109 | sotrastaurin 0.045 | alvocidib -0.073 | Tubastatin A -0.124 | [1] -0.037 | rucaparib -0.217 | [2] -0.031 | encorafenib 0.058

NLE1 (UniProt Q9NVX2)
inactive: saracatinib 0.051 | sotrastaurin -0.019 | alvocidib -0.03 | Tubastatin A -0.026 | [1] -0.032 | defactinib -0.039 | rucaparib -0.04 | [2] -0.012 | encorafenib -0.002 | [3] -0.021
